{"source": "patent US20150328320A1", "about": "“Novel Pharmaceutical Composition” (GLAXOSMITHKLINE LLC, priority 2012, published 2015)", "test": "Taste of the drug substance", "note": "Like-named read-outs stand apart in the source and are kept apart here."}
{"smiles": "CC(=O)Nc1cccc(-n2c(=O)n(C3CC3)c(=O)c3c(Nc4ccc(I)cc4F)n(C)c(=O)c(C)c32)c1", "note": "[Compound A, N-{3-[3-cyclopropyl-5-(2-fluoro-4-iodo-phenylamino)-6,8-dimethyl-2,4,7-trioxo-3,4,6,7-tetrahydro-2H-pyrido[4,3-d]pyrimidin-1-yl]phenyl}acetamide dimethyl sulfoxide solvate]", "values": [{"measurement": "taste", "result": "bitter taste"}, {"measurement": "taste", "setting": "listed as trametinib", "result": "bitter"}]}
